According to the supplement of paper PMC5393889:
The other results are listed elsewhere or left out.

test system: Caenorhabditis elegans N2; assay: aldicarb interaction hit call (worm growth perturbed in combination with 10 uM aldicarb in both replicates, no effect as single agent) (binary (1 = interacts)); higher = interacts with aldicarb (growth perturbed); details: first compound 1.5 µM; aldicarb concentration 10 µM; 6 days; 20 °C
Method: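 C. elegans liquid growth assay in 96-well plates: about 40 synchronized L1 worms in NGM with HB101 E. coli, 6 days at 20 C, 0.6% DMSO. Each wactive compound was tested at 1.5 uM plus 10 uM aldicarb, and alone in DMSO controls. Viable worms were scored under a dissection microscope in two replicates. A hit is a compound that perturbed growth with aldicarb in both replicates but had no obvious effect as a single agent. Only compounds that overgrew as single agents are kept.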

Structure (SMILES)	aldicarb interaction hit call
O=C(Nc1ccc(NC(=S)NC(=O)c2ccccc2Cl)cc1)c1cccc(Cl)c1 [wact-459] + CNC(=O)O/N=C/C(C)(C)SC [aldicarb]	inactive: 0
Fc1ccccc1NC(=S)Nc1cccc(C(F)(F)F)c1 [wact-533] + CNC(=O)O/N=C/C(C)(C)SC [aldicarb]	inactive: 0
C=CCN(CC=C)c1ncnc2ccc(Br)cc12.Cl [wact-492] + CNC(=O)O/N=C/C(C)(C)SC [aldicarb]	inactive: 0
COCC1CCN(Cc2nc(-c3ccc(-c4ccccc4)cc3)oc2C)CC1 [wact-253] + CNC(=O)O/N=C/C(C)(C)SC [aldicarb]	inactive: 0
CC(NC(=O)c1nc(-c2ccc(F)cc2)no1)c1ccccc1 (stereo not given) [wact-582] + CNC(=O)O/N=C/C(C)(C)SC [aldicarb]	inactive: 0
COc1ccc2nc(NC(=O)C3CCCO3)sc2c1 (stereo not given) [wact-523] + CNC(=O)O/N=C/C(C)(C)SC [aldicarb]	inactive: 0
CCOc1ccc(/C=C/C(=O)c2ccc(OC)cc2)cc1 [wact-20] + CNC(=O)O/N=C/C(C)(C)SC [aldicarb]	inactive: 0
COc1ccc(NC(=O)c2ccccc2C)cc1 [wact-69] + CNC(=O)O/N=C/C(C)(C)SC [aldicarb]	inactive: 0
C#CCN1C(=O)S/C(=C/c2cc(C)n(-c3cccc([N+](=O)[O-])c3)c2C)C1=O [wact-207] + CNC(=O)O/N=C/C(C)(C)SC [aldicarb]	inactive: 0
C=CCOc1ccc(NC(=O)c2ccccc2Br)cc1 [wact-569] + CNC(=O)O/N=C/C(C)(C)SC [aldicarb]	inactive: 0
O=C(NC(=S)Nc1ccc(Cl)cc1Cl)C1CC1 [wact-224] + CNC(=O)O/N=C/C(C)(C)SC [aldicarb]	active: 1
COc1ccc(NC(=O)c2ccccc2)cc1/N=C/c1ccc(C#Cc2ccccc2)cc1 [wact-377] + CNC(=O)O/N=C/C(C)(C)SC [aldicarb]	inactive: 0
CCNCCOc1ccc(-c2ccccc2)cc1.Cl [wact-179] + CNC(=O)O/N=C/C(C)(C)SC [aldicarb]	inactive: 0
C#CCNS(=O)(=O)c1cccc(C(=O)OCc2cc(-c3ccc(Cl)cc3)no2)c1 [wact-349] + CNC(=O)O/N=C/C(C)(C)SC [aldicarb]	inactive: 0
O=C(NCc1ccc(Cl)cc1Cl)c1cccs1 [wact-520] + CNC(=O)O/N=C/C(C)(C)SC [aldicarb]	inactive: 0
O=C(NCc1ccccc1Cl)C(Cl)(Cl)Cl [wact-482] + CNC(=O)O/N=C/C(C)(C)SC [aldicarb]	inactive: 0
O=C(Nc1cccc(C(F)(F)F)c1)c1ccc(Cl)cc1Cl [wact-22] + CNC(=O)O/N=C/C(C)(C)SC [aldicarb]	active: 1
FC(F)(F)c1cc(-c2ccc(-n3cccc3)cc2)[nH]n1 + CNC(=O)O/N=C/C(C)(C)SC [aldicarb]	inactive: 0
Ic1ccc(OCCCN2CCNCC2)cc1.O=C(O)C(=O)O [wact-76] + CNC(=O)O/N=C/C(C)(C)SC [aldicarb]	inactive: 0
O=[N+]([O-])c1ccc(N2CCN(C(=S)NCc3ccc(Cl)cc3)CC2)cc1 [wact-115] + CNC(=O)O/N=C/C(C)(C)SC [aldicarb]	inactive: 0

Structure (SMILES)	aldicarb interaction hit call
CCOCC(=O)Nc1ccc(-c2nc3ccc(C)cc3s2)cc1 [wact-522] + CNC(=O)O/N=C/C(C)(C)SC [aldicarb]	inactive: 0
Brc1cccc(CSc2nnc(-c3ccco3)o2)c1 [wact-63] + CNC(=O)O/N=C/C(C)(C)SC [aldicarb]	inactive: 0
Cl.c1ccc(-c2ccc(OCCCCN3CCOCC3)cc2)cc1 [wact-146] + CNC(=O)O/N=C/C(C)(C)SC [aldicarb]	inactive: 0
C#CCn1/c(=N/C(=O)c2ccccc2S(C)(=O)=O)sc2cc(F)ccc21 [wact-353] + CNC(=O)O/N=C/C(C)(C)SC [aldicarb]	inactive: 0
FC(F)(F)c1cccc(N2CCN(C3CCCN(Cc4cccc5c4OCO5)C3)CC2)c1 (stereo not given) [wact-331] + CNC(=O)O/N=C/C(C)(C)SC [aldicarb]	inactive: 0
CN(Cc1cccn1-c1nccs1)CC1CCCN(CCc2ccc(Cl)cc2)C1 (stereo not given) [wact-252] + CNC(=O)O/N=C/C(C)(C)SC [aldicarb]	inactive: 0
O=c1cc(-c2ccccc2)nc(-c2ccccc2)o1 [wact-378] + CNC(=O)O/N=C/C(C)(C)SC [aldicarb]	inactive: 0
O=C1/C(=C/c2ccc(-c3cccc(Cl)c3)o2)SC(=S)N1C1CCS(=O)(=O)C1 (stereo not given) [wact-367] + CNC(=O)O/N=C/C(C)(C)SC [aldicarb]	inactive: 0
Clc1ccc(-c2cn3ccsc3n2)cc1 [wact-1] + CNC(=O)O/N=C/C(C)(C)SC [aldicarb]	inactive: 0
CN(CC1CCN(CCc2ccc(Cl)cc2)CC1)C1CCSCC1 [wact-315] + CNC(=O)O/N=C/C(C)(C)SC [aldicarb]	inactive: 0
CCCCC(=O)N1CCN(c2cc(C)c([N+](=O)[O-])cc2F)CC1 [wact-519] + CNC(=O)O/N=C/C(C)(C)SC [aldicarb]	inactive: 0
C#CCSc1nnc(-c2ccc(Br)cc2)o1 [wact-209] + CNC(=O)O/N=C/C(C)(C)SC [aldicarb]	inactive: 0
Cl.c1ccc(COc2cccc(CNCc3cccs3)c2)cc1 [wact-118] + CNC(=O)O/N=C/C(C)(C)SC [aldicarb]	inactive: 0
Clc1ccc(Cn2nnc(-c3ccncc3)n2)cc1Cl [wact-575] + CNC(=O)O/N=C/C(C)(C)SC [aldicarb]	inactive: 0
COc1ccc(-c2nc3cc(N)ccc3o2)cc1 [wact-600] + CNC(=O)O/N=C/C(C)(C)SC [aldicarb]	inactive: 0
Cc1ccccc1NC(=S)NC(=O)c1cccs1 [wact-460] + CNC(=O)O/N=C/C(C)(C)SC [aldicarb]	inactive: 0
Cc1ccccc1Nc1nc(-c2ccncc2)cs1 [wact-547] + CNC(=O)O/N=C/C(C)(C)SC [aldicarb]	inactive: 0
CCN1CCN(c2ccc(NC(=O)c3cccs3)cc2Cl)CC1 [wact-103] + CNC(=O)O/N=C/C(C)(C)SC [aldicarb]	inactive: 0
O=C(Nc1ccc(-c2cccc(F)c2)cc1)C1CCCN(CCCn2cccn2)C1 (stereo not given) [wact-323] + CNC(=O)O/N=C/C(C)(C)SC [aldicarb]	inactive: 0
Clc1ccc(Cl)c(-c2nc(-c3ccccn3)no2)c1 [wact-507] + CNC(=O)O/N=C/C(C)(C)SC [aldicarb]	inactive: 0

Single values from the results shown.
Clc1ccc(-c2cn3ccsc3n2)cc1 [wact-1] + CNC(=O)O/N=C/C(C)(C)SC [aldicarb] – aldicarb interaction hit call: inactive: 0
Cl.c1ccc(-c2ccc(OCCCCN3CCOCC3)cc2)cc1 [wact-146] + CNC(=O)O/N=C/C(C)(C)SC [aldicarb] – aldicarb interaction hit call: inactive: 0
